Here are results for one sequence from PMC10046738, “Detection of Alpha Fetoprotein Based on AIEgen Nanosphere Labeled Aptamer Combined with Sandwich Structure of Magnetic Gold Nanocomposites”.

The chains behind the UniProt entries cited, without tags or fusion partners. Residues count along the entry.
UniProt P02771, 19-609: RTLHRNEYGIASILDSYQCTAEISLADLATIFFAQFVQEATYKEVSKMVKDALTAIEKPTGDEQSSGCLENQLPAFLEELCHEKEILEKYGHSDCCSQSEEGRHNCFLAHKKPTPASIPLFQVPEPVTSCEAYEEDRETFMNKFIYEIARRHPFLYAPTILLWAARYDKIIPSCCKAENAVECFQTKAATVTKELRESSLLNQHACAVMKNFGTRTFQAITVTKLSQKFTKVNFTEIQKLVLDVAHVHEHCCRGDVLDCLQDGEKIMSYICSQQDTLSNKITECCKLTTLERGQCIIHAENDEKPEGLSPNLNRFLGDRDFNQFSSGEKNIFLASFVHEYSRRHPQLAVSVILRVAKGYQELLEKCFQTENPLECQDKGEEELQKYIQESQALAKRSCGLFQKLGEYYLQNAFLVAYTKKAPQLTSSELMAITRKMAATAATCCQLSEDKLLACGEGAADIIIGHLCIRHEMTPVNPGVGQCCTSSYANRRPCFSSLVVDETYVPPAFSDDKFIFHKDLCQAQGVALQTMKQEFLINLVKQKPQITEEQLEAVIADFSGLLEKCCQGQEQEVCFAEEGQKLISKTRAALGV

This series addresses alpha-fetoprotein (AFP) (UniProt P02771). As to the kind of experiment: fluorescence sandwich aptasensor (magnetic capture). To be noted: AIEgen-labeled reporter aptamer, AFP captured by aptamer 1; 5'-amino; PBS 10 mM, pH 7.4 (aptamer 1 immobilization); room temperature, 30 min AFP then 30 min aptamer 2; 15 nM aptamer 1, 8 ug/mL AIEgen aptamer 2, 10 ug/mL Fe3O4@MPTMS@AuNPs; label: AIEgen polystyrene nanosphere; single-stranded DNA.

The exact form of at least one protein or probe is not confirmed. At least one verdict was read from the data and is not stated in words by the source.

In the case of “GTGACGCTCCTAACGCTGACTCAGGTGCAGTTCTCGACTCGGTCTTGATGTGGGTCCTGTCCGTCCGAACCAATC [Aptamer 2 (AFP aptamer, 5'-NH2)]”, the binding result was “binds”.
